Results are given in words; binding and its absence hold for the method and conditions named. For part of these data: Binding calls can cover weak binding; strength is not graded here. Tags and fused reporters may be left off the sequences shown. For part of these data: In cells and extracts the contact can be indirect.
Columns and labels:
[1] = target: T1, WOX5-YFPN (WUSCHEL-RELATED HOMEOBOX 5 fused to the N-terminal half of YFP) (Arabidopsis thaliana) (UniProt Q8H1D2); experiment: split reporter
T1 sequence: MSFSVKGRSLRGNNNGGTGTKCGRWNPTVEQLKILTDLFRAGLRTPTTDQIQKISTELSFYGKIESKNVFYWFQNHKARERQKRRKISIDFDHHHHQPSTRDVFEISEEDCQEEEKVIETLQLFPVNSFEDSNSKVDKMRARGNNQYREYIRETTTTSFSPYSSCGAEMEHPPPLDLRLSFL

[2] = target: T2, WOX5-YFP (Arabidopsis thaliana) (UniProt Q8H1D2); experiment: co-IP
T2 sequence: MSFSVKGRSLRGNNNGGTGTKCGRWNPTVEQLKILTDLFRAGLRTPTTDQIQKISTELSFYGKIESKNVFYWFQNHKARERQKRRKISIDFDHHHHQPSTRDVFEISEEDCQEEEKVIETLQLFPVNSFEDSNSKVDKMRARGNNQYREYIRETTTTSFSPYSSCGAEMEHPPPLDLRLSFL

[3] = target: T3, MBP-WOX5 (Arabidopsis thaliana) (UniProt Q8H1D2); experiment: pull-down
T3 sequence: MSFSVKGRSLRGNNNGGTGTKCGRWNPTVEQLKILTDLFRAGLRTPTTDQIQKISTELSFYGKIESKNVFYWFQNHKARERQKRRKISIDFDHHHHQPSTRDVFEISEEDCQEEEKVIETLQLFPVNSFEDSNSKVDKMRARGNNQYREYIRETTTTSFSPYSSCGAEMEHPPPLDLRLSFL

[4] = target: AtSK31-BD (Arabidopsis SHAGGY-like kinase 31, yeast two-hybrid fusion) (Arabidopsis thaliana); experiment: two-hybrid
[5] = target: AtSK32-BD (Arabidopsis SHAGGY-like kinase 32, yeast two-hybrid fusion) (Arabidopsis thaliana); experiment: two-hybrid

For “AtPP2A-C3-YFPC (Arabidopsis thaliana) (enzyme)”, which binding [1] is on record?
Its binding is “binds”.

Which binding [1] does the source give for “AtPP2A-C4-YFPC (Arabidopsis thaliana) (enzyme)” here?
The binding was “binds”.

Which binding [2] does the source give for “Flag-AtPP2A-C3 (Arabidopsis thaliana) (enzyme)” here?
Its binding is “binds”.

Which binding [2] does the source give for “Flag-AtPP2A-C4 (Arabidopsis thaliana) (enzyme)” here?
Its binding is “binds”.

“GST-AtPP2A-C3 (Arabidopsis thaliana) (enzyme)” was tested. Which binding [3] did it give?
The binding was “binds”.

“GST-AtPP2A-C4 (Arabidopsis thaliana) (enzyme)” was tested. Which binding [3] did it give?
Its binding is “binds”.

“HAM4-YFPC (HAIRY MERISTEM 4) (Arabidopsis thaliana)” was tested. Which binding [1] did it give?
Its binding is “binds”.

B1: WOX5-AD (WUSCHEL-RELATED HOMEOBOX 5, yeast two-hybrid fusion) (protein, UniProt Q8H1D2 1-182)
chain: MSFSVKGRSLRGNNNGGTGTKCGRWNPTVEQLKILTDLFRAGLRTPTTDQIQKISTELSFYGKIESKNVFYWFQNHKARERQKRRKISIDFDHHHHQPSTRDVFEISEEDCQEEEKVIETLQLFPVNSFEDSNSKVDKMRARGNNQYREYIRETTTTSFSPYSSCGAEMEHPPPLDLRLSFL
With B1 as the molecule, how does the binding [4] read?
Its binding is “no binding”.

And the binding [5]?
Its binding is “no binding”.

From publication doi:10.1101/2023.08.13.546412 (bioRxiv, 2023)
